Source: patent publication US20110243899A1 (NATIONAL UNIVERSITY CORPORATION CHIBA UNIVERSITY, published 2011)
Results are given in words; binding and its absence hold for the method and conditions named. Some results given as binding are weak or reduced against the parent protein; the word gives no strength. Sequences can lack the tags named with a protein.

Sequences of proteins named here, by UniProt entry; tags and fusion partners are left off. A change or cut given only in a name is not applied to a line headed by its entry. A line that says so, or that is headed by a name, gives the form on record, which may keep a tag or linker. Residues count along the entry.
Myc-tagged LRP6N (LRP6N-Myc), extracellular portion of LRP6 (O75581, residues 20-1370): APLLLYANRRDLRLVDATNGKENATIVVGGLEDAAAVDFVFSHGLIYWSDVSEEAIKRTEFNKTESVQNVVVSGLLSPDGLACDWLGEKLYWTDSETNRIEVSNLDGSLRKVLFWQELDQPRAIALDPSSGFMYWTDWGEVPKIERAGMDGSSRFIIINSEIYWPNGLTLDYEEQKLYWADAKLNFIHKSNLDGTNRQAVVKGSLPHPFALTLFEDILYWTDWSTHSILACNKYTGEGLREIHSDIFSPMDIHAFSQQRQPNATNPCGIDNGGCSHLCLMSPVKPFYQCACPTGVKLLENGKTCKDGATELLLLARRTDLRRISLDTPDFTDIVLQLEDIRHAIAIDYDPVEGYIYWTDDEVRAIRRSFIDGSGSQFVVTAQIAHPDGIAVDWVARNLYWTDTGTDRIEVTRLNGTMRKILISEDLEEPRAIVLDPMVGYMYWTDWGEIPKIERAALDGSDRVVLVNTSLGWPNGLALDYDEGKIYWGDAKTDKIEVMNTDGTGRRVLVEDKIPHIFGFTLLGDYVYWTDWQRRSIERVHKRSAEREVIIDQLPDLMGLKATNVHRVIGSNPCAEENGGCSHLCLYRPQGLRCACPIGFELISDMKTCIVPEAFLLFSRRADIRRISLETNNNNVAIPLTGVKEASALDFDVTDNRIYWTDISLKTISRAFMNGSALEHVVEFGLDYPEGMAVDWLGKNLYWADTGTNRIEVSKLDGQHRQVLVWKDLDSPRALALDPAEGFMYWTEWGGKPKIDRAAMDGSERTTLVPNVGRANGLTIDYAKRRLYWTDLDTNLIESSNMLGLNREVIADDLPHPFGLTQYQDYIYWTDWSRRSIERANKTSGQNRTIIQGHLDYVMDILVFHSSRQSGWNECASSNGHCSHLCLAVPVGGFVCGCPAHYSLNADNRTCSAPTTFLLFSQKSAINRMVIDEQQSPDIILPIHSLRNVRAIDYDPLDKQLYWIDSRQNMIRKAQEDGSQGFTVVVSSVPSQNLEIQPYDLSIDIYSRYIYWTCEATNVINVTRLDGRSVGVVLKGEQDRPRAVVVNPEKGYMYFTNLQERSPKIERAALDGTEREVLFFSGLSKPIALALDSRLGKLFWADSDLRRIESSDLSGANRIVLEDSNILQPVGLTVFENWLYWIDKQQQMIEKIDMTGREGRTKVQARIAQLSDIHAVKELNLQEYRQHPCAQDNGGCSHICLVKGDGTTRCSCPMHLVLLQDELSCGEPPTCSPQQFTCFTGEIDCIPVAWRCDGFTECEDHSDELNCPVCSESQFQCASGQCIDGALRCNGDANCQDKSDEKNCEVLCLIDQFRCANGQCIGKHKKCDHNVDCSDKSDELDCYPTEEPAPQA
LRP6 E1-2/L mutant (soluble, Myc-tagged LRP6 deletion mutant) (O75581, form named): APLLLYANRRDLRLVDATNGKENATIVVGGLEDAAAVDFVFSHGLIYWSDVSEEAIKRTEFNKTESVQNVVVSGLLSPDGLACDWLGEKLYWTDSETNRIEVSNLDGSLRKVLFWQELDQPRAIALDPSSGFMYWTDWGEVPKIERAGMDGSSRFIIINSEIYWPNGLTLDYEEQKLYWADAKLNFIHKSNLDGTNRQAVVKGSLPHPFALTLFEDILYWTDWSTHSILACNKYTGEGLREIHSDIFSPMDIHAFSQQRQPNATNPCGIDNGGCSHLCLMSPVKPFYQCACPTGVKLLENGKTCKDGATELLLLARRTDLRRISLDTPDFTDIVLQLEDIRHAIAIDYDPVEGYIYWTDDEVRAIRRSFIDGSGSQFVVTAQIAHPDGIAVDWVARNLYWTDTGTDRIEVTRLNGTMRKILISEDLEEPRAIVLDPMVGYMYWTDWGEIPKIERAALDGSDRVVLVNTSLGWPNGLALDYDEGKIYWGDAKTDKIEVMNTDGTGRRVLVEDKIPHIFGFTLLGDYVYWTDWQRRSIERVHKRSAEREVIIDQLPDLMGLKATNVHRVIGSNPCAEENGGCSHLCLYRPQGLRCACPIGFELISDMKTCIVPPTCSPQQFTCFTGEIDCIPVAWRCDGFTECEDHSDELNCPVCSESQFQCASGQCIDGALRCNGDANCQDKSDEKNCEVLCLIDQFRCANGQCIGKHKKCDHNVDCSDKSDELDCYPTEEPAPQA

How the values were obtained:
[1] = molecular target: LRP6 E1-2/L mutant (soluble, Myc-tagged LRP6 deletion mutant) (UniProt O75581); assay: IP/western with LRP6 deletion mutants
[2] = molecular target: Myc-tagged LRP6N (LRP6N-Myc), extracellular portion of LRP6 (UniProt O75581); assay: IP/western, LRP6N-Myc with V5-tagged IGFBP
[3] = molecular target: Myc-tagged LRP6N (LRP6N-Myc), extracellular portion of LRP6 (UniProt O75581); assay: IP/western
[4] = molecular target: LRP6 E1-2/L mutant (soluble, Myc-tagged LRP6 deletion mutant) (UniProt O75581); assay: IP/western, Myc-tagged LRP6 mutant with IGFBP-4-V5
[5] = molecular target: Myc-tagged LRP6N (LRP6N-Myc), extracellular portion of LRP6 (UniProt O75581); assay: IP/western, LRP6N-Myc with IGFBP-4-V5

Row | Binder | binding [1] | binding [2] | binding [3] | binding [4] | binding [5]
1 | V5-tagged IGFBP4 (IGFBP-4-V5) (protein, mouse, UniProt P47879 22-254, looked up, not shown: small tags and cut ends) DEAIHCPPCSEEKLARCRPPVGCEELVREPGCGCCATCALGLGMPCGVYTPRCGSGMRCYPPRGVEKPLRTLMHGQGVCTELSEIEAIQESLQTSDKDESEHPNNSFNPCSAHDHRCLQKHMAKIRDRSKMKIVGTPREEPRPVPQGSCQSELHRALERLAASQSRTHEDLFIIPIPNCDRNGNFHPKQCHPALDGQRGKCWCVDRKTGVKLPGGLEPKGELDCHQLADSFQE | binds | binds | binds | binds | binds
2 | IGFBP-1 (V5-tagged) (protein, mouse, UniProt P47876 26-272, looked up, not shown: small tags and cut ends) APQPWHCAPCTAERLGLCPPVPASCPEISRPAGCGCCPTCALPMGAACGVATARCAQGLSCRALPGEPRPLHALTRGQGACVPEPAAPATSTLFSSQHEEAKAAVVSADELSESPEMTEEQLLDSFHLMAPSREDQPILWNAISTYSSMRAREIADLKKWKEPCQRELYKVLERLAAAQQKAGDEIYKFYLPNCNKNGFYHSKQCETSLDGEAGLCWCVYPWSGKKIPGSLETRGDPNCHQYFNVHN |  | binds | binds |  | 
3 | IGFBP-2 (V5-tagged) (protein, mouse, UniProt P47877 35-305, looked up, not shown: small tags and cut ends) EVLFRCPPCTPERLAACGPPPDAPCAELVREPGCGCCSVCARQEGEACGVYIPRCAQTLRCYPNPGSELPLKALVTGAGTCEKRRVGTTPQQVADSDDDHSEGGLVENHVDGTMNMLGGGSSAGRKPLKSGMKELAVFREKVNEQHRQMGKGAKHLSLEEPKKLRPPPARTPCQQELDQVLERISTMRLPDDRGPLEHLYSLHIPNCDKHGRYNLKQCKMSLNGQRGECWCVNPNTGKPIQGAPTIRGDPECHLFYNEQQETGGAHAQSVQ |  | binds | binds |  | 
4 | IGFBP-6 (V5-tagged) (protein, mouse, UniProt P47880 26-238, looked up, not shown: small tags and cut ends) ALAGCPGCGAGMQTGCRGGCVEEEDAGSPADGCTEAGGCLRREGQPCGVYSPKCAPGLQCQPRENEEAPLRALLIGQGRCQRARGPSEETTKESKPQGGASRSRDTNHRDRQKNPRTSAAPIRPNPVQDSEMGPCRRHLDSVLQQLQTEVFRGGARGLYVPNCDLRGFYRKQQCRSSQGNRRGPCWCVDPMGQPLPVSPDGQGSTQCSARSSG |  | binds | binds |  | 
